PubChem BioAssay AID504774 | Drosophila RNAi Screening Center – 2011
Aim: 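Fly genes whose loss alters survival after alkylation damage to DNA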 (primary screen). Cell system: Drosophila Kc167 cells. Knock-down reagent: long dsRNA against Drosophila genes, about 0.25 µg dsRNA per well. Time to read-out: about 6 days: 3 days knock-down, then 3 days with or without MMS. Treatment: methyl methanesulphonate 0.004% (w/v) for 3 days after knock-down. Read-out: 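ATP-dependent luminescence as a measure of live cells in MMS-exposed wells, quantile normalised within each plate, with replicate values also given as a mean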. Scale: mean viability with MMS and viability with MMS: higher = more surviving cells after MMS.
In all, the deposit lists about 23,000 reagents; below is an unselected part of those that have a named target and a result. 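Values are quantile-normalised luminescence on an arbitrary scale; higher means more cells surviving MMS.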 Names joined by + are all predicted targets of the reagent. Reagent sequences are not shown.

target	amplicon	mean viability with MMS	viability with MMS, replicate 1	viability with MMS, replicate 2
CG14185	DRSC10184	3.67e6	4.17e6	4.11e6
Atac2	DRSC02053	3.61e6	4.23e6	3.99e6
PolH	DRSC11800	3.57e6	4.02e6	4.08e6
clu	DRSC07181	3.43e6	3.93e6	3.87e6
pr	DRSC03596	3.74e6	4.00e6	4.53e6
CG11037	DRSC11631	3.63e6	4.18e6	4.05e6
POLDIP2	DRSC12194	3.72e6	4.31e6	4.14e6
CG15522	DRSC15059	3.38e6	3.80e6	3.79e6
verm	DRSC11038	3.49e6	3.92e6	3.98e6
CG34323	DRSC18916	3.63e6	4.18e6	4.01e6
bt	DRSC17129	3.54e6	4.14e6	3.91e6
bt	DRSC17171	3.55e6	4.15e6	3.91e6
Tm2	DRSC16887	3.45e6	4.00e6	3.80e6
eEF5	DRSC04681	3.39e6	3.83e6	3.81e6
Gos28	DRSC16292	3.58e6	3.92e6	4.19e6
Gos28	DRSC22859	3.60e6	4.35e6	3.79e6
CG12301	DRSC09875	3.47e6	3.87e6	3.99e6
slp2	DRSC00836	3.49e6	3.98e6	3.93e6
mbc	DRSC16995	3.52e6	3.83e6	4.14e6
CG3603	DRSC18317	3.49e6	4.12e6	3.82e6
CG11249	DRSC11645	3.67e6	4.08e6	4.19e6
CG15673	DRSC04263	3.71e6	4.22e6	4.14e6
hoe1	DRSC00265	3.37e6	3.74e6	3.78e6
hoe1	DRSC00333	3.64e6	3.98e6	4.22e6
hoe1	DRSC00353	3.66e6	4.19e6	4.07e6
CRIF	DRSC11811	3.46e6	3.84e6	4.00e6
CG15891 + CG15892	DRSC18095	3.53e6	3.76e6	4.14e6
CG15891 + CG15892	DRSC18096	3.57e6	4.00e6	4.12e6
drpr	DRSC08143	3.57e6	4.04e6	4.05e6
drpr	DRSC08525	3.57e6	4.08e6	3.99e6
CG12985	DRSC19505	3.63e6	4.07e6	4.13e6
Schip1	DRSC02851	3.60e6	4.46e6	3.71e6
MsR2 + CG13802 (retired record)	DRSC08336	3.66e6	4.07e6	4.17e6
MsR2 + CG13802 (retired record)	DRSC08337	3.62e6	4.10e6	4.07e6
MsR2 + CG13802 (retired record)	DRSC22440	3.66e6	4.15e6	4.07e6
Zmynd10	DRSC09826	3.61e6	3.96e6	4.19e6
Drip	DRSC07405	3.74e6	4.07e6	4.47e6
Sas-6	DRSC15061	3.68e6	4.11e6	4.22e6
Mdh2 (retired record)	DRSC16361	3.49e6	4.00e6	3.93e6
spir	DRSC03619	3.63e6	4.13e6	4.09e6
Egfr	DRSC03871	3.50e6	3.89e6	4.06e6
Egfr	DRSC04613	3.67e6	4.16e6	4.16e6
CG7706	DRSC16295	3.52e6	4.10e6	3.89e6
Papst2	DRSC10924	3.74e6	4.26e6	4.13e6
CG34325	DRSC19802	3.67e6	4.14e6	4.14e6
CG34325	DRSC20200	3.67e6	4.04e6	4.23e6

3 of these entries in another layout:
drpr [DRSC08525]
- mean viability with MMS: 3.57e6
- viability with MMS, replicate 1: 4.08e6
- viability with MMS, replicate 2: 3.99e6

CG12985 [DRSC19505]
- mean viability with MMS: 3.63e6
- viability with MMS, replicate 1: 4.07e6
- viability with MMS, replicate 2: 4.13e6

Schip1 [DRSC02851]
- mean viability with MMS: 3.60e6
- viability with MMS, replicate 1: 4.46e6
- viability with MMS, replicate 2: 3.71e6
